Measurements taken from ChEMBL document CHEMBL3352714, “Synthesis, in Vitro Covalent Binding Evaluation, and Metabolism of (14)C-Labeled Inhibitors of 11β-HSD1” (ACS Med Chem Lett, 2014).

Tested on: Cynomolgus monkey
Details: Macaca fascicularis; at 10 mg/kg

For `C[C@](O)(c1ccc(S(=O)(=O)c2ccc(C#N)cc2Cl)cc1)C(F)(F)F`, the inhibition was “Dose-dependent effect”.
